Measured values from the supplement of paper PMC4604168 (melanoma cell lines).
This is one part of the list. Single values are uncertain, as repeats are few or missing.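 The apoptosis fraction was the count of cleaved-PARP antibody-stained nuclei relative to all DNA-stained nuclei, imaged in 1,536-well plates. Screening doses were set so most cells survived, and baseline and induced cleaved-PARP levels vary greatly across cell lines.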

Tests used:
Experiment in all cases: cleaved PARP positive nuclei fraction relative to DMSO control; melanoma cells; higher = more apoptosis
Conditions in all cases: library dose: low library concentration; 72 h
[1] = tested on: MZ2-MEL
[2] = tested on: MeWo
[3] = tested on: RPMI7951
[4] = tested on: RVH-421
[5] = tested on: SkMel28
[6] = tested on: SkMel2
[7] = tested on: SkMel30
[8] = tested on: UACC62
[9] = tested on: WM115
[10] = tested on: WM1716
[11] = tested on: WM1745
[12] = tested on: WM3526
[13] = tested on: WM3619
[14] = tested on: WM451Lu

SMILES	cleaved PARP positive nuclei fraction [1] [%]	cleaved PARP positive nuclei fraction [2] [%]	cleaved PARP positive nuclei fraction [3] [%]	cleaved PARP positive nuclei fraction [4] [%]	cleaved PARP positive nuclei fraction [5] [%]	cleaved PARP positive nuclei fraction [6] [%]	cleaved PARP positive nuclei fraction [7] [%]	cleaved PARP positive nuclei fraction [8] [%]	cleaved PARP positive nuclei fraction [9] [%]	cleaved PARP positive nuclei fraction [10] [%]	cleaved PARP positive nuclei fraction [11] [%]	cleaved PARP positive nuclei fraction [12] [%]	cleaved PARP positive nuclei fraction [13] [%]	cleaved PARP positive nuclei fraction [14] [%]
CC[C@]1(O)C[C@H]2CN(CCc3c([nH]c4ccccc34)[C@@](C(=O)OC)(c3cc4c(cc3OC)N(C=O)[C@H]3[C@@](O)(C(=O)OC)[C@H](OC(C)=O)[C@]5(CC)C=CCN6CC[C@]43[C@@H]65)C2)C1 [vincristine] + COCC[n+]1c2c(n(Cc3cnccn3)c1C)C(=O)c1ccccc1C2=O [YM155] (first compound 0.0001 µM, partner dose 0.0004 µM)	331	342	199	53.8	94	161	47.1	556	857	1970	105	63	164	176
O=C(/C=C/c1cccnc1)NCCCCC1CCN(C(=O)c2ccccc2)CC1 + CC(=O)O[C@@]12CO[C@@H]1C[C@H](O)[C@@]1(C)C(=O)[C@H](O)C3=C(C)[C@@H](OC(=O)[C@H](O)[C@@H](NC(=O)OC(C)(C)C)c4ccccc4)C[C@@](O)([C@@H](OC(=O)c4ccccc4)[C@H]21)C3(C)C [Docetaxel] (first compound 0.01 µM, partner dose 0.0001 µM)	1200	686	219	135	90.8	2110	762	103	144	191	168	347	134	81.5
O=C(Nc1cc(C(F)(F)F)cc(C(F)(F)F)c1)c1cc(Cl)ccc1O + CCCS(=O)(=O)Nc1ccc(F)c(C(=O)c2c[nH]c3ncc(Cl)cc23)c1F [PLX4720] (first compound 0.016 µM, partner dose 0.08 µM)	80.4	160	58	150	85.5	145	45	104	66.1	394	88.5	96.8	91.1	169
CC[C@]1(O)C[C@H]2CN(CCc3c([nH]c4ccccc34)[C@@](C(=O)OC)(c3cc4c(cc3OC)N(C=O)[C@H]3[C@@](O)(C(=O)OC)[C@H](OC(C)=O)[C@]5(CC)C=CCN6CC[C@]43[C@@H]65)C2)C1 [vincristine] + CS(=O)(=O)CCNCc1ccc(-c2ccc3ncnc(Nc4ccc(OCc5cccc(F)c5)c(Cl)c4)c3c2)o1 [lapatinib] (first compound 0.0001 µM, partner dose 0.8 µM)	158	583	283	123	633	422	263	1170	1750	153	113	440	384	52.6
N#CC[C@H](C1CCCC1)n1cc(-c2ncnc3[nH]ccc23)cn1 [ruxolitinib] + CCCS(=O)(=O)Nc1ccc(F)c(C(=O)c2c[nH]c3ncc(Cl)cc23)c1F [PLX4720] (first compound 1 µM, partner dose 0.08 µM)	196	207	91.6	179	64.4	102	82.5	135	135	66.8	81.7	23.7	97	492
Cc1ccc(Nc2nccc(N(C)c3ccc4c(C)n(C)nc4c3)n2)cc1S(N)(=O)=O [Pazopanib] + CS(=O)(=O)c1ccc(C(=O)Nc2ccc(Cl)c(-c3ccccn3)c2)c(Cl)c1 [vismodegib] (first compound 0.4 µM, partner dose 1 µM)	42.8	114	42.7	100	40.8	17.1	171	109	113	119	88.5	57.3	97.8	53.8
COc1cc([C@@H]2c3cc4c(cc3[C@@H](O[C@@H]3O[C@@H]5CO[C@@H](C)O[C@H]5[C@H](O)[C@H]3O)[C@H]3COC(=O)[C@H]23)OCO4)cc(OC)c1O [etoposide] + CC(C)C[C@H](NC(=O)[C@H](Cc1ccccc1)NC(=O)c1cnccn1)B(O)O [Bortezomib] (first compound 0.02 µM, partner dose 0.001 µM)	139	129	117	59.9	80.7	73	73.2	96.1	77.4	459	159	60.5	235	58.5
O=C(/C=C/c1cccnc1)NCCCCC1CCN(C(=O)c2ccccc2)CC1 + C[C@@H](N)c1ccc(C(=O)Nc2ccnc3[nH]ccc23)cc1 [RKI983] (first compound 0.01 µM, partner dose 0.4 µM)	1460	252	121	226	78.5	2050	201	47.4	107	143	104	34.3	122	103
Cc1cc(Nc2cc(N3CCN(C)CC3)nc(Sc3ccc(NC(=O)C4CC4)cc3)n2)n[nH]1 [Tozasertib] + COc1cc([C@@H]2c3cc4c(cc3[C@@H](O[C@@H]3O[C@@H]5CO[C@@H](C)O[C@H]5[C@H](O)[C@H]3O)[C@H]3COC(=O)[C@H]23)OCO4)cc(OC)c1O [etoposide] (first compound 0.006 µM, partner dose 0.02 µM)	33.5	66.8	33.6	67.3	28.9	44.6	178	127	70	187	110	108	103	51.9
CCCCCCCCCCCCCCCCCCOP(=O)([O-])OC1CC[N+](C)(C)CC1 [Perifosine] + Nc1ccn([C@@H]2O[C@H](CO)[C@@H](O)C2(F)F)c(=O)n1 [gemcitabine] (first compound 0.4 µM, partner dose 0.0004 µM)	122	145	59.8	124	29.5	47.6	84.3	23.8	170	81.1	126	291	78.9	89.1
N#CC[C@H](C1CCCC1)n1cc(-c2ncnc3[nH]ccc23)cn1 [ruxolitinib] + Nc1nc(F)nc2c1ncn2[C@@H]1O[C@H](CO)[C@@H](O)[C@@H]1O [fludarabine] (first compound 1 µM, partner dose 0.2 µM)	225	719	60.2	125	41.4	1040	709	131	136	68.1	85.1	437	101	50.5
Cc1ccc(Nc2nccc(N(C)c3ccc4c(C)n(C)nc4c3)n2)cc1S(N)(=O)=O [Pazopanib] + C=CCNC1=C2C[C@@H](C)C[C@H](OC)[C@H](O)[C@@H](C)/C=C(\C)[C@H](OC(N)=O)[C@@H](OC)/C=C\C=C(/C)C(=O)NC(=CC1=O)C2=O [Tanespimycin] (first compound 0.4 µM, partner dose 0.002 µM)	175	76.2	134	83.6	113	149	89.6	129	96.9	558	105	92.1	127	304
CCCCCCCCCCCCCCCCCCOP(=O)([O-])OC1CC[N+](C)(C)CC1 [Perifosine] + COc1ccc(C2=N[C@@H](c3ccc(Cl)cc3)[C@@H](c3ccc(Cl)cc3)N2C(=O)N2CCNC(=O)C2)c(OC(C)C)c1 [Nutlin-3] (first compound 0.4 µM, partner dose 0.1 µM)	45	53.3	148	47.3	73.3	134	67.1	159	107	62.2	81.4	150	157	55.8
CCCCCCCCCCCCCCCCCCOP(=O)([O-])OC1CC[N+](C)(C)CC1 [Perifosine] + CC(=O)O[C@@]12CO[C@@H]1C[C@H](O)[C@@]1(C)C(=O)[C@H](O)C3=C(C)[C@@H](OC(=O)[C@H](O)[C@@H](NC(=O)OC(C)(C)C)c4ccccc4)C[C@@](O)([C@@H](OC(=O)c4ccccc4)[C@H]21)C3(C)C [Docetaxel] (first compound 0.4 µM, partner dose 0.0001 µM)	578	532	607	129	226	468	407	368	212	267	172	259	131	109
Cc1cn(-c2cc(NC(=O)c3ccc(C)c(Nc4nccc(-c5cccnc5)n4)c3)cc(C(F)(F)F)c2)cn1 [nilotinib] + C#Cc1cccc(Nc2ncnc3cc(OCCOC)c(OCCOC)cc23)c1 [erlotinib] (first compound 0.2 µM, partner dose 0.8 µM)	82.2	84	311	26.3	71.3	98.5	102	445	20.9	73.5	110	51.4	94.3	62.1
Cc1cc(Nc2cc(N3CCN(C)CC3)nc(Sc3ccc(NC(=O)C4CC4)cc3)n2)n[nH]1 [Tozasertib] + Cn1nnc2c(C(N)=O)ncn2c1=O [temozolomide] (first compound 0.006 µM, partner dose 2 µM)	35.3	92.4	72.7	95.9	107	46.2	38.3	99.7	146	123	98.6	311	99.6	101
O=C(Nc1cc(C(F)(F)F)cc(C(F)(F)F)c1)c1cc(Cl)ccc1O + O=C(O)[C@@H]1[O][Sb](=[O])([O][Sb]2(=[O])[O][C@H]([C@H](O)CO)[C@H](O)[C@H](C(=O)O)[O]2)[O][C@H]([C@H](O)CO)[C@@H]1O [stibogluconate] (first compound 0.016 µM, partner dose 2 µM)	270	112	33.4	65.8	42.6	64	231	23.3	122	139	108	19.7	97.3	25.3

Part of the list above, showing only cleaved PARP positive nuclei fraction [14] [%]:

| SMILES | cleaved PARP positive nuclei fraction [14] [%] |
| --- | --- |
| N#CC[C@H](C1CCCC1)n1cc(-c2ncnc3[nH]ccc23)cn1 [ruxolitinib] + CCCS(=O)(=O)Nc1ccc(F)c(C(=O)c2c[nH]c3ncc(Cl)cc23)c1F [PLX4720] (first compound 1 µM, partner dose 0.08 µM) | 492 |
| N#CC[C@H](C1CCCC1)n1cc(-c2ncnc3[nH]ccc23)cn1 [ruxolitinib] + Nc1nc(F)nc2c1ncn2[C@@H]1O[C@H](CO)[C@@H](O)[C@@H]1O [fludarabine] (first compound 1 µM, partner dose 0.2 µM) | 50.5 |
